ChEMBL document CHEMBL5674883, “The Heterochromatin Landscape in Migrating Cells and the Importance of H3K27me3 for Associated Transcriptome Alterations” (Cells, 2018)
This continues a long series; more values of the same kind are listed elsewhere.

Protein sequences, listed by entry. Tags and fused reporters are not part of them.
UniProt Q61188, whole entry: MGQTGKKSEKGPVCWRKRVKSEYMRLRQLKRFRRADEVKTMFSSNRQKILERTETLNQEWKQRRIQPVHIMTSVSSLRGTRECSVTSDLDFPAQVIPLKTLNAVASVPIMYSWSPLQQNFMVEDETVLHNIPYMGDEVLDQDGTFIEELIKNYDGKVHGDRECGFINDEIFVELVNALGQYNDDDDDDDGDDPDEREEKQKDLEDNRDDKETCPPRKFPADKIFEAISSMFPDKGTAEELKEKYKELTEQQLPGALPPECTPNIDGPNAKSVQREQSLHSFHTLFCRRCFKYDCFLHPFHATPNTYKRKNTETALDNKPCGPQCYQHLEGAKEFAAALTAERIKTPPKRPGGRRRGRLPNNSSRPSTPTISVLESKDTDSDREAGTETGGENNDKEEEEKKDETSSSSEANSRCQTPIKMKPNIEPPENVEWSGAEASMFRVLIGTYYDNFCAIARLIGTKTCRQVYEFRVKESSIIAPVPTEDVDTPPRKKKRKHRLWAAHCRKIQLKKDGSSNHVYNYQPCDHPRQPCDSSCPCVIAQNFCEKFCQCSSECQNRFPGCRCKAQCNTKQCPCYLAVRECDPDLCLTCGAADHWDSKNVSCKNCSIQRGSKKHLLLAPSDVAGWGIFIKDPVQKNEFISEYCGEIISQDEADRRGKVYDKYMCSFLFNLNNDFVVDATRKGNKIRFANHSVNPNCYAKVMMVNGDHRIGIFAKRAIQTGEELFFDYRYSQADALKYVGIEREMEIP

Experiments:
Format in all cases: cell-based
[1] = biological target: Histone-lysine N-methyltransferase EZH2 (Mus musculus) (UniProt Q61188); assay: Inhibition of EZH2 in mouse B16-F1 migrating cells assessed as fold change in H3K27me3-buffered regulated D630003M21Rik-mRNA expression at 3 uM measured by ChIP-seq analysis relative to control cells
[2] = biological target: Histone-lysine N-methyltransferase EZH2 (Mus musculus) (UniProt Q61188); assay: Inhibition of EZH2 in mouse B16-F1 migrating cells assessed as fold change in H3K27me3-buffered regulated Ccdc142-mRNA expression at 3 uM measured by ChIP-seq analysis relative to control cells
[3] = biological target: Histone-lysine N-methyltransferase EZH2 (Mus musculus) (UniProt Q61188); assay: Inhibition of EZH2 in mouse B16-F1 migrating cells assessed as fold change in H3K27me3-buffered regulated Flvcr1-mRNA expression at 3 uM measured by ChIP-seq analysis relative to control cells
[4] = biological target: Histone-lysine N-methyltransferase EZH2 (Mus musculus) (UniProt Q61188); assay: Inhibition of EZH2 in mouse B16-F1 migrating cells assessed as fold change in H3K27me3-independent regulated Lef1-mRNA expression at 3 uM measured by ChIP-seq analysis relative to control cells
[5] = biological target: Histone-lysine N-methyltransferase EZH2 (Mus musculus) (UniProt Q61188); assay: Inhibition of EZH2 in mouse B16-F1 migrating cells assessed as fold change in H3K27me3-buffered regulated Bbc3-mRNA expression at 3 uM measured by ChIP-seq analysis relative to control cells
[6] = biological target: Histone-lysine N-methyltransferase EZH2 (Mus musculus) (UniProt Q61188); assay: Inhibition of EZH2 in mouse B16-F1 migrating cells assessed as fold change in H3K27me3-buffered regulated Mapk8-mRNA expression at 3 uM measured by ChIP-seq analysis relative to control cells
[7] = biological target: Histone-lysine N-methyltransferase EZH2 (Mus musculus) (UniProt Q61188); assay: Inhibition of EZH2 in mouse B16-F1 migrating cells assessed as fold change in H3K27me3-independent regulated Pkp2-mRNA expression at 3 uM measured by ChIP-seq analysis relative to control cells
[8] = biological target: Histone-lysine N-methyltransferase EZH2 (Mus musculus) (UniProt Q61188); assay: Inhibition of EZH2 in mouse B16-F1 migrating cells assessed as fold change in H3K27me3-buffered regulated Insig1-mRNA expression at 3 uM measured by ChIP-seq analysis relative to control cells
[9] = biological target: Histone-lysine N-methyltransferase EZH2 (Mus musculus) (UniProt Q61188); assay: Inhibition of EZH2 in mouse B16-F1 migrating cells assessed as fold change in H3K27me3-buffered regulated L3mbtl3-mRNA expression at 3 uM measured by ChIP-seq analysis relative to control cells
[10] = biological target: Histone-lysine N-methyltransferase EZH2 (Mus musculus) (UniProt Q61188); assay: Inhibition of EZH2 in mouse B16-F1 migrating cells assessed as fold change in H3K27me3-buffered regulated Prokr1-mRNA expression at 3 uM measured by ChIP-seq analysis relative to control cells
[11] = biological target: Histone-lysine N-methyltransferase EZH2 (Mus musculus) (UniProt Q61188); assay: Inhibition of EZH2 in mouse B16-F1 migrating cells assessed as fold change in H3K27me3-independent regulated Spsb2-mRNA expression at 3 uM measured by ChIP-seq analysis relative to control cells
[12] = biological target: Histone-lysine N-methyltransferase EZH2 (Mus musculus) (UniProt Q61188); assay: Inhibition of EZH2 in mouse B16-F1 migrating cells assessed as fold change in H3K27me3-independent regulated Itga5-mRNA expression at 3 uM measured by ChIP-seq analysis relative to control cells
[13] = biological target: T1, RNA polymerase II (Mus musculus) (UniProt P08775+Q8CFI7+P97760+A0A3Q4L2S8+Q80UW8+P61219+P62488+Q923G2+P60898+O08740+Q63871+P62876); assay: Inhibition of RNA polymerase II in mouse B16-F1 migrating cells assessed as fold change in Chmp6-RNA stability at 0.1 mM measured by ChIP-seq analysis relative to control cells
[14] = biological target: T1, RNA polymerase II (Mus musculus); assay: Inhibition of RNA polymerase II in mouse B16-F1 migrating cells assessed as fold change in Pih1d1-RNA stability at 0.1 mM measured by ChIP-seq analysis relative to control cells
[15] = biological target: T1, RNA polymerase II (Mus musculus); assay: Inhibition of RNA polymerase II in mouse B16-F1 migrating cells assessed as fold change in Scaf11-RNA stability at 0.1 mM measured by ChIP-seq analysis relative to control cells
[16] = biological target: T1, RNA polymerase II (Mus musculus); assay: Inhibition of RNA polymerase II in mouse B16-F1 migrating cells assessed as fold change in Acadsb-RNA stability at 0.1 mM measured by ChIP-seq analysis relative to control cells
[17] = biological target: T1, RNA polymerase II (Mus musculus); assay: Inhibition of RNA polymerase II in mouse B16-F1 migrating cells assessed as fold change in Prkar2b-RNA stability at 0.1 mM measured by ChIP-seq analysis relative to control cells
[18] = biological target: T1, RNA polymerase II (Mus musculus); assay: Inhibition of RNA polymerase II in mouse B16-F1 migrating cells assessed as fold change in Tsr1-RNA stability at 0.1 mM measured by ChIP-seq analysis relative to control cells
[19] = biological target: T1, RNA polymerase II (Mus musculus); assay: Inhibition of RNA polymerase II in mouse B16-F1 migrating cells assessed as fold change in Alcam-RNA stability at 0.1 mM measured by ChIP-seq analysis relative to control cells
[20] = biological target: T1, RNA polymerase II (Mus musculus); assay: Inhibition of RNA polymerase II in mouse B16-F1 migrating cells assessed as fold change in Carmil1-RNA stability at 0.1 mM measured by ChIP-seq analysis relative to control cells
[21] = biological target: T1, RNA polymerase II (Mus musculus); assay: Inhibition of RNA polymerase II in mouse B16-F1 migrating cells assessed as fold change in Trnt1-RNA stability at 0.1 mM measured by ChIP-seq analysis relative to control cells
[22] = biological target: T1, RNA polymerase II (Mus musculus); assay: Inhibition of RNA polymerase II in mouse B16-F1 migrating cells assessed as fold change in Golim4-RNA stability at 0.1 mM measured by ChIP-seq analysis relative to control cells
[23] = biological target: T1, RNA polymerase II (Mus musculus); assay: Inhibition of RNA polymerase II in mouse B16-F1 migrating cells assessed as fold change in Hps6-RNA stability at 0.1 mM measured by ChIP-seq analysis relative to control cells
[24] = biological target: T1, RNA polymerase II (Mus musculus); assay: Inhibition of RNA polymerase II in mouse B16-F1 migrating cells assessed as fold change in Gng11-RNA stability at 0.1 mM measured by ChIP-seq analysis relative to control cells
[25] = biological target: T1, RNA polymerase II (Mus musculus); assay: Inhibition of RNA polymerase II in mouse B16-F1 migrating cells assessed as fold change in Pnkp-RNA stability at 0.1 mM measured by ChIP-seq analysis relative to control cells
[26] = biological target: T1, RNA polymerase II (Mus musculus); assay: Inhibition of RNA polymerase II in mouse B16-F1 migrating cells assessed as fold change in Man1a2-RNA stability at 0.1 mM measured by ChIP-seq analysis relative to control cells
[27] = biological target: T1, RNA polymerase II (Mus musculus); assay: Inhibition of RNA polymerase II in mouse B16-F1 migrating cells assessed as fold change in Acvrl1-RNA stability at 0.1 mM measured by ChIP-seq analysis relative to control cells
[28] = biological target: T1, RNA polymerase II (Mus musculus); assay: Inhibition of RNA polymerase II in mouse B16-F1 migrating cells assessed as fold change in Ywhaz-RNA stability at 0.1 mM measured by ChIP-seq analysis relative to control cells
[29] = biological target: T1, RNA polymerase II (Mus musculus); assay: Inhibition of RNA polymerase II in mouse B16-F1 migrating cells assessed as fold change in Rnf219-RNA stability at 0.1 mM measured by ChIP-seq analysis relative to control cells
[30] = biological target: T1, RNA polymerase II (Mus musculus); assay: Inhibition of RNA polymerase II in mouse B16-F1 migrating cells assessed as fold change in Pla2g2e-RNA stability at 0.1 mM measured by ChIP-seq analysis relative to control cells

`CCCc1cc(C)[nH]c(=O)c1CNC(=O)c1cc(-c2ccnc(N3CCN(C)CC3)c2)cc2c1cnn2C(C)C` was tested. Which log2FC [1] did it give?
Its log2FC is 0.41.

And the log2FC [2]?
Its log2FC is -0.94.

What about the log2FC [3] of the same molecule?
Its log2FC is 0.4.

What about the log2FC [4] of the same molecule?
Its log2FC is 1.23.

And the log2FC [5]?
Its log2FC is -0.78.

What about the log2FC [6] of the same molecule?
Its log2FC is -0.39.

What about the log2FC [7] of the same molecule?
The log2FC was 0.67.

And the log2FC [8]?
Its log2FC is 0.64.

What about the log2FC [9] of the same molecule?
The log2FC was -0.4.

What about the log2FC [10] of the same molecule?
The log2FC was -0.64.

And the log2FC [11]?
The log2FC was 0.42.

What about the log2FC [12] of the same molecule?
Its log2FC is 0.42.

`OC[C@H]1O[C@@H](n2cnc3cc(Cl)c(Cl)cc32)[C@H](O)[C@@H]1O` was tested. Which log2FC [13] did it give?
Its log2FC is 0.39.

And the log2FC [14]?
Its log2FC is 0.44.

And the log2FC [15]?
The log2FC was -0.47.

What about the log2FC [16] of the same molecule?
The log2FC was -0.63.

What about the log2FC [17] of the same molecule?
The log2FC was -0.57.

What about the log2FC [18] of the same molecule?
Its log2FC is -0.68.

And the log2FC [19]?
The log2FC was -0.66.

And the log2FC [20]?
Its log2FC is -0.87.

What about the log2FC [21] of the same molecule?
The log2FC was -0.62.

What about the log2FC [22] of the same molecule?
The log2FC was -0.66.

And the log2FC [23]?
The log2FC was -1.36.

What about the log2FC [24] of the same molecule?
The log2FC was 0.66.

What about the log2FC [25] of the same molecule?
The log2FC was 0.44.

And the log2FC [26]?
Its log2FC is -0.55.

What about the log2FC [27] of the same molecule?
The log2FC was 0.83.

What about the log2FC [28] of the same molecule?
Its log2FC is -0.49.

And the log2FC [29]?
The log2FC was -0.67.

And the log2FC [30]?
Its log2FC is 0.54.
